Here are results for one compound from patent US20120156704A1, “IN VITRO METHOD FOR DETECTING GP91PHOX AS A MARKER OF OXIDATIVE STRESS” (BIOS INTERNATIONAL S.R.L., priority 2009, published 2012).

The assay concerns hypercholesterolemic patients. As to conditions: group B, diet + atorvastatin 10 mg/day, end of 30 days; from 211±68 at baseline, p=0.035.

Turning to `CC(C)c1c(C(=O)Nc2ccccc2)c(-c2ccccc2)c(-c2ccc(F)cc2)n1CC[C@@H](O)C[C@@H](O)CC(=O)O` [atorvastatin], the “sgp91phox (serum, western blot densitometry)” value came out at 154±43 A.U.
